# Structures can show the parent of a compound that is named as a salt.
# Test system: patient suffering from symphysiolysis
# Details: after 30 minutes; 5 ml lidocaine HCl 1%, subcutaneous, both sides
smiles,measurement,value
CCN(CC)CC(=O)Nc1c(C)cccc1C [lidocaine HCl],stability in walking,increased
